Source: PubChem BioAssay AID1053208 (Peter MacCallum Cancer Centre, 2014)
Aim: 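Find knock-downs that sensitise mouse osteosarcoma cells to doxorubicin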 (primary screen). Cells: mouse osteosarcoma cells, early-passage culture from an engineered mouse model of fibroblastic bone tumour. Knock-down reagent: siRNA pool against mouse genes, 40 nM. Time to read-out: about 120 h (48 h before drug, then 72 h with drug). Treatment: doxorubicin 100 nM for 72 h, roughly 30-40% inhibitory dose. Detection: 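Viability read as ATP luminescence after 72 h of 100 nM doxorubicin or none, duplicate wells averaged, scaled to non-targeting siRNA, then expressed as robust z-scores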. Scale: viability z-score with doxorubicin and doxorubicin viability vs non-targeting: higher = more viable cells under doxorubicin; viability z-score without drug: higher = more viable cells with knock-down alone; z-score of drug to no-drug ratio: higher = less drug sensitisation by knock-down. Rule for the call: 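Called active if knock-down leaves viability unchanged without drug (z within -2 to 2) but lowers it with doxorubicin (z at or under -2)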.
The deposit covers about 17,000 reagents; shown is a part drawn at random. Over the whole deposit, 788 (4.7%) were called active. 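Calls rest on z-score classes alone; an extra cut-off of viability at most 70% of control was not applied to them.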 A number with no mark means an inactive call.

gene,combined z-score class,viability z-score with doxorubicin,viability z-score without drug,z-score of drug to no-drug ratio,doxorubicin viability vs non-targeting
Gdf11 (GeneID 14561),no change with or without drug,0.34,0.17,0.34,0.97
Khdc4 (GeneID 74200),no change with or without drug,0.67,0.84,0.22,1
H2-Q8 (GeneID 68395),high cell count without drug only,1.57,2.87,-0.22,1.08
Or51a24 (GeneID 258247),no change with or without drug,-1.91,-0.34,-1.69,0.77
Mybph (GeneID 53311),no change with or without drug,0.34,-0.84,1.12,0.97
Wnt5b (GeneID 22419),no change with or without drug,0.45,0.67,0.11,0.98
Phkb (GeneID 102093),no change with or without drug,-0.11,0,0,0.93

Next part; the last 2 above are carried over.
gene,combined z-score class,viability z-score with doxorubicin,viability z-score without drug,z-score of drug to no-drug ratio,doxorubicin viability vs non-targeting
Wnt5b (GeneID 22419),no change with or without drug,0.45,0.67,0.11,0.98
Phkb (GeneID 102093),no change with or without drug,-0.11,0,0,0.93
Rmc1 (GeneID 76482),no change with or without drug,0,0.34,-0.11,0.94
Decr2 (GeneID 26378),no change with or without drug,0,-1.18,1.01,0.94
Sct (GeneID 20287),no change with or without drug,0.67,0.34,0.56,1
Flt1 (GeneID 14254),no change with or without drug,0.11,1.35,-0.67,0.95
Csrp1 (GeneID 13007),no change with or without drug,1.12,0.84,0.67,1.04
Cxcl5 (GeneID 20311),no change with or without drug,0.9,0,1.01,1.02
E230015B07Rik (GeneID 320001),no change with or without drug,1.01,1.18,0.34,1.03
Plscr1 (GeneID 22038),no change with or without drug,0.67,-0.17,0.9,1
Gp6 (GeneID 243816),no change with or without drug,0.45,1.18,-0.22,0.98
Sin3b (GeneID 20467),no change with or without drug,-0.45,0.17,-0.45,0.9
H2-Oa (GeneID 15001),no change with or without drug,0.9,-1.18,2.02,1.02
Hoxc10 (GeneID 209448),no change with or without drug,-0.22,0.17,-0.22,0.92
Calcrl (GeneID 54598),no change with or without drug,-1.8,-0.51,-1.46,0.78
